Results are given in words; binding and its absence hold for the method and conditions named. Some entries that bind do so weakly or less than the wild type.
Molecular target: T1, human CD147 antigen (human, UniProt P35613-2 22-205, limits assumed)
T1 sequence (looked up): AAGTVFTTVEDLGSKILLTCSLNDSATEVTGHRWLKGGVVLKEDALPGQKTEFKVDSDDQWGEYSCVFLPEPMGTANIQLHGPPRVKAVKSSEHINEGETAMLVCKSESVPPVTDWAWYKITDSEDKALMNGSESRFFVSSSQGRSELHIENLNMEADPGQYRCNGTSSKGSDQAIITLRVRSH
Assay: SPR, ProteOn XPR36, antibody immobilised, CD147 as analyte

binding: binds
B1: HAb18 (antibody, V domains shown)
VH: EVKLEESGGGLVQPGGSMKLSCVASGFTFSDAWMDWVRQSPEKGLEWVAEIRSKANNHAPYYTESVKGRFTISRDDSKSIIYLQMNNLRAEDTGIYYCTRDSTATHWGQGT
VL: SIVMTQTPTFLVVSAGDRVTITCKASQSVINDVAWYQQKPGQSPKLLIFYASNRNTGVPDRFTGSGYGTDFTFTISTVQAEDLAVYFCQQDYSPPFTFGSGTKLEIKR
notes: Murine monoclonal antibody from hybridoma CGMCC NO; 0426; The variable domains are tied to HAb18 through cHAb18, whose variable domains are 'derived from HAb18'; also called original mouse antibody HAb18; anti-CD147 murine monoclonal antibody HAb18
